In this assay the target is T1, Sterol regulatory element binding protein (SREBP) cleavage-activating protein (mouse (endogenous in primary astrocytes)) (UniProt Q6GQT6).
T1 sequence: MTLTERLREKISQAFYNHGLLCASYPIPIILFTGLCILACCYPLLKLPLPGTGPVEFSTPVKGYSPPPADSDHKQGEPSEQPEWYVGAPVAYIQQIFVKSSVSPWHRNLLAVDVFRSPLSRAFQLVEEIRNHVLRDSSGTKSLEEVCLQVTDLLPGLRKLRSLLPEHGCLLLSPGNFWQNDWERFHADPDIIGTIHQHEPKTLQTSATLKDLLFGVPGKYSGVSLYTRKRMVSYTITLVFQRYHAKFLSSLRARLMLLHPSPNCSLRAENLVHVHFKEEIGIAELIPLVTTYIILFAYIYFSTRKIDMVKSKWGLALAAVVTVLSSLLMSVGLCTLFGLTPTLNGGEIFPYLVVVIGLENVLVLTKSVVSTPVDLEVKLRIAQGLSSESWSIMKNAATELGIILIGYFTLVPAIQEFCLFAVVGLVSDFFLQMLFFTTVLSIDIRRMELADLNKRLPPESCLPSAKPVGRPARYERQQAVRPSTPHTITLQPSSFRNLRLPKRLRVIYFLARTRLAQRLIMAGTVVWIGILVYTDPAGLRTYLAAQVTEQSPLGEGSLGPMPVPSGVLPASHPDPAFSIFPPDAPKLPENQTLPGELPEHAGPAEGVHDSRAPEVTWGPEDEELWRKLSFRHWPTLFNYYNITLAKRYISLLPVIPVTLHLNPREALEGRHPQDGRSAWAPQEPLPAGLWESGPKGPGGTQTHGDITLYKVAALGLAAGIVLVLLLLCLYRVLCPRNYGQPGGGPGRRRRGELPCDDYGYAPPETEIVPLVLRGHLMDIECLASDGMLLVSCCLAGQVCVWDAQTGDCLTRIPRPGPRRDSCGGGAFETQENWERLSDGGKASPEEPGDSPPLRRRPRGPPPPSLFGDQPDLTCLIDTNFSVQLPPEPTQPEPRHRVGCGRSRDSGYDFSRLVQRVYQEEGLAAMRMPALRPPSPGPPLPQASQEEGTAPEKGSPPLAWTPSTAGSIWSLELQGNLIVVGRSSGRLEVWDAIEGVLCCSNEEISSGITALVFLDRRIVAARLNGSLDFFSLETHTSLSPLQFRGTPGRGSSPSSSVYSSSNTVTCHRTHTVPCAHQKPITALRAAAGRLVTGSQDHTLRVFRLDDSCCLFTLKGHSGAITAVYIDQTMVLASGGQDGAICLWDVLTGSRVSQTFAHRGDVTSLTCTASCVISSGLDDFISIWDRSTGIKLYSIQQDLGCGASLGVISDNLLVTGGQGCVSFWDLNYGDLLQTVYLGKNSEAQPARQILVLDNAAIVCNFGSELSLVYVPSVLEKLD
The assay can be described thus: co-IP; endogenous proteins in astrocytes; immunoprecipitation with anti-SCAP, anti-IκBα and anti-NF-κB antibodies, then immunoblotting (n = 3); protocol in the Supplementary Materials and Methods.

Protein sequences, listed by entry. Tags and fused reporters are not part of them.
UniProt Q9Z1E3: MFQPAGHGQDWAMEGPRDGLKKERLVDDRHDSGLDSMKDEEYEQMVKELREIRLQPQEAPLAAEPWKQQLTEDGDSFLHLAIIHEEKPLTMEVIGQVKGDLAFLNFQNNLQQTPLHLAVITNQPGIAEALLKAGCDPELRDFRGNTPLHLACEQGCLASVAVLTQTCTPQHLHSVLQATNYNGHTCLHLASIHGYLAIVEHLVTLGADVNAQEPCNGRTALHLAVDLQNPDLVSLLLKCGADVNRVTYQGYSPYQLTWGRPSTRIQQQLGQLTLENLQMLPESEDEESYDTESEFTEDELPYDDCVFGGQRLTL

No constants are given. Whether binding was seen depends on the method and setting. In cells and extracts the contact can be indirect. Some binding calls cover weakened binding; strength is not graded here.

For the substance “IκBα, an inhibitory subunit of NF-κB (from UniProt Q9Z1E3 1-314)”, the binding entry is on record as “binds”.
